US11097016B2, “Use of lyso-Gb1 as druggable target” (Centogene GmbH, priority 2016, dated 2021)
For at least one compound, name, drawing or mass did not settle the structure.

Legend:
glucosylceramides = test: Glucosylceramide levels in blood of treated mice; type: in vivo; conditions: after 4 and 8 weeks
GCase = molecular target: T1, GCase (Mus musculus, UniProt P17439); test: Glucocerebrosidase enzyme activity measurement in spleen and liver lysates (4-MUG); parameters: species or system mice; conditions: ex vivo; 4, 8 and 12 weeks after treatment initiation
T1 construct: Fresh-frozen liver and spleen samples were homogenized; from tissue; host or cells: mouse liver and spleen lysates
T1 sequence (P17439 20-515): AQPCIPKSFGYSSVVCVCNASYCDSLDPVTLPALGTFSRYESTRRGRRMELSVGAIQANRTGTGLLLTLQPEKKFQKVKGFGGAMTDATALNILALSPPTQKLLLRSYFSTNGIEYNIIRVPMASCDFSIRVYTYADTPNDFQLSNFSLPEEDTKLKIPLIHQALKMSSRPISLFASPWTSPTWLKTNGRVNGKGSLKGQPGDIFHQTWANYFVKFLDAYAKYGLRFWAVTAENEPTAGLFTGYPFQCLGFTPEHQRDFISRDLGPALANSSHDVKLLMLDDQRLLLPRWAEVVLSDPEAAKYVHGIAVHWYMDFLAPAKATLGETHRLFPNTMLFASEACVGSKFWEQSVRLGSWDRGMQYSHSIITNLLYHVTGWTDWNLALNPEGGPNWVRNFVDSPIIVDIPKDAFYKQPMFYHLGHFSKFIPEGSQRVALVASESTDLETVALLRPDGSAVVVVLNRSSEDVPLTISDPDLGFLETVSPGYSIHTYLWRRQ

Q: For `CCCCCCCCCCCCC/C=C/[C@@H](O)[C@@H](N)CO[C@@H]1O[C@H](CO)[C@@H](O)[C@H](O)[C@H]1O` [lyso-Gb1, glucosylsphingosine], which glucosylceramide levels (glucosylceramides) is on record?
A: Its glucosylceramide levels is “only moderately affected”.

Q: And the “GCase activity in spleen and liver lysates” value (GCase)?
A: Its value is “normal ex vivo activity”.
